Some of these results come from one statement about several compounds together.
Target: ALPP (Homo sapiens, UniProt P05187)
Experiment: BLI 1:1 format, Fc-fused protein immobilised on AHC biosensors, human ALPP
Settings: BLI using the 1:1 binding format; read-out: affinity constant for ALPP

Sequences of proteins named here, by UniProt entry; tags and fusion partners are left off. A line that says so, or that is headed by a name, gives the form on record, which may keep a tag or linker.
UniProt P05187, with tags, fused parts or gaps: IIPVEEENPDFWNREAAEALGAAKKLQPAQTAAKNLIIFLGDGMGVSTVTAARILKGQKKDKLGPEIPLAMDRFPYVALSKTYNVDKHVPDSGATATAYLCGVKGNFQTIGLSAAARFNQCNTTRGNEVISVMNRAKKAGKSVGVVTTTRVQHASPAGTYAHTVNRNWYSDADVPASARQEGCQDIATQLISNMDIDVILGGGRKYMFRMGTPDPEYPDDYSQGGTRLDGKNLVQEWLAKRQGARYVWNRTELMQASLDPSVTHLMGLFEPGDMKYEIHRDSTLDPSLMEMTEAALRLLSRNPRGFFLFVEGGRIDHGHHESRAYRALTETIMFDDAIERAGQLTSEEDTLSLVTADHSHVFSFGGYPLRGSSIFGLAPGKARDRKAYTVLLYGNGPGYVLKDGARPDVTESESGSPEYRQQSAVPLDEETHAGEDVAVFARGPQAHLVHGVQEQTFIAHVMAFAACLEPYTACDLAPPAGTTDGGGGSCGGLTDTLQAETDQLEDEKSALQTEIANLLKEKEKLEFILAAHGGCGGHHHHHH

B1: E06: ALPP/ALPPL2 targeting VHH domain, SEQ ID NO: 30 (protein)
VHH: QVHLVESGGGLVQAGGSLRLSCAASRRSFSEYAMGWFRQAPGKEREFVAAIGWSGVIEYADSVKGRFTISRDNAKDTVYLQMNSLKPEDTAVYYCAAGLGIRVVSQTPAYWGQGTQVTVSS
In the case of B1, the Kd is reported as 0.1 to 10 nM.

B2: E10: ALPP/ALPPL2 targeting VHH domain, SEQ ID NO: 31 (protein)
VHH: QVQLVESGGGLVQAGGSLRLSCAVSGRALSDYNIGWFRQAPGKEREFVARKTWDGSSTRYDDSVKGRFTVSIEDAKNTAYLQMSSLKTEDTAVYYCAAGRYSRARGWEYDYWGQGTQVTVSS
B2 was tested, and the Kd was 0.1 to 10 nM.

Source: US20260216242A1, “ALPP-SPECIFIC VARIANT ANTIGEN BINDING MOLECULES” (ALMAC DISCOVERY LIMITED, priority 2022, published 2026)
